Measured values taken from publication PMC8750328.
Like-named read-outs stand apart in the source and are kept apart here. No constants are given. Whether binding was seen depends on the method and setting. Some binding calls cover weakened binding; strength is not graded here.

Chains of the proteins cited; added tags and fusions are not shown. Residues count along the entry.
UniProt P0CG72, residues 1-76: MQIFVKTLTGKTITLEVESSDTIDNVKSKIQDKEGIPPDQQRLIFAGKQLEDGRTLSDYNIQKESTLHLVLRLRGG

Columns and labels:
[1] = target: T1, Nse1(117–232), in pGBKT7 (S. pombe) (UniProt Q53EK2); assay: two-hybrid; GAL4-based; pGADT7 or pACT2 (activation domain) and pGBKT7 (DNA-binding domain) plasmids co-transformed into S. cerevisiae PJ69-4a; growth on media lacking Leu, Trp and His (without or with 1 mM 3-aminotriazole) or adenine; 3 days at 30 °C
T1 sequence: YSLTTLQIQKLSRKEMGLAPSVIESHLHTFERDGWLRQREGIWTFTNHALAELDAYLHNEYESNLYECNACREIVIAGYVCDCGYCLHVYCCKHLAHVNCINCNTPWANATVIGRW

[2] = target: T2, Nse1(1–232), full-length, in pGBKT7 (S. pombe) (UniProt Q53EK2); assay: as above
T2 sequence: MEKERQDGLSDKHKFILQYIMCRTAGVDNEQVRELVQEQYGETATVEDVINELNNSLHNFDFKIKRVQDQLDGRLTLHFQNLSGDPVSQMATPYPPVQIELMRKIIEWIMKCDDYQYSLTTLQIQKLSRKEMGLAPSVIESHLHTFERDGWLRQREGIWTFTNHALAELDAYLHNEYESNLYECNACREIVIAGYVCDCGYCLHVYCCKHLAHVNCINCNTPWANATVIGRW

[3] = target: T3, Nse1(97–178), in pGBKT7 (S. pombe) (UniProt Q53EK2); assay: as above
T3 sequence: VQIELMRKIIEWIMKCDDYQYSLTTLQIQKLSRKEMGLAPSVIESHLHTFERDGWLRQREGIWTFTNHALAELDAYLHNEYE

[4] = target: T2, Nse1(1–232), full-length, in pGBKT7 (S. pombe); assay: as above; remark: listed apart in the source
[5] = target: T4, Nse1-R188E, in pGBKT7 (S. pombe) (UniProt Q53EK2); assay: as above
T4 sequence: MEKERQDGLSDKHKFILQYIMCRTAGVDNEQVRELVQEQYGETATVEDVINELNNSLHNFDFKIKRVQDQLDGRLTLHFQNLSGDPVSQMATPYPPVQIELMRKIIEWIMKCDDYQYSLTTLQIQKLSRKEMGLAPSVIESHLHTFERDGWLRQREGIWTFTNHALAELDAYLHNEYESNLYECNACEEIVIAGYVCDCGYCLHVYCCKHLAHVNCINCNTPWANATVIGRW

[6] = target: T5, Nse1 (recombinant, of the purified Nse1/3 dimer and Nse1/3/4 trimer) (S. pombe) (UniProt Q53EK2); assay: co-purification of co-expressed proteins; S. pombe Nse1/3 dimer and Nse1/3/4 trimer each expressed from one plasmid and purified as described in ref. 22
T5 sequence: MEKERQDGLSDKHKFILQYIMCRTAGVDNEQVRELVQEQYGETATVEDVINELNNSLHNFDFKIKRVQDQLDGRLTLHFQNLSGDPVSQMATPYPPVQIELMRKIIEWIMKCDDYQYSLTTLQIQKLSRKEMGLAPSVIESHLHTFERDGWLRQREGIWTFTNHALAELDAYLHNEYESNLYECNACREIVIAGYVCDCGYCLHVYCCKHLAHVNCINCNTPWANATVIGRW

Ubiquitin, in pGADT7 (from UniProt P0CG72 1-76)
binding [1]: binds | binding [2]: binds | binding [3]: binds

B1: Nse4, complete coding sequence, in pACT2 (protein, UniProt Q6BDR8 1-300)
chain: MSSIDKRDLRKRYRNLINKVQESRLELVDEENNNLYETITTANDLFSSVDAPTEATLDALLLTKTVDLASIKARQLHIGRPKFNIELFTKNIKQFLNYPTSHSNVTRIQEIDTAWSRLGKLASNCEKQPASLNLMVGPLSFRKKERNIQRRERLQKAPNVLTQPTMLNERNITTQENNTTKNVLHISRLLQAHQPVNFLKFITNPQSYPQTVENLFYVSFLFKEGKAALVENESGILMLETRIPPTDDQVVAGEIRNIQLVLDMTMDLYENIIKEYNIKESIIPTRAPVETSTNSNTWYG
binding [4]: binds | binding [5]: binds

B2: Nse3 (recombinant, of the purified Nse1/3 dimer and Nse1/3/4 trimer) (protein, UniProt Q9Y7U4 1-328)
chain: MSQLSFTGKSSSKGRSRLTQEVRPTASQIIADEEASDLDEYEEDLEGSGNEDDFGPSMSRSSRGRKRRKGDPLELQSQFEERNETDAINFQLLVRNVVRYAICSQTSHNTITRKDIVQKAFPEGTSRNLFQSVFEEADRQLQLSFGFRLVAVTQSNRKKDMAVSQLRRPATSNANSSNLHRYWVLRSTLPMELQKDSRLIVDSVLDTAYYGFLMTVIAFIAVSHCSVGHSELQSFLQELLTEEETTPLHLDITRSLSLLVRQGYLDRVKDDTHNQFVYYIGSRAVTEISIEGLKSFVTEFFPDSDIDMDALLTEYRQEYQNQSSSSAA
binding [6]: binds

B3: Nse4 (recombinant, of the purified Nse1/3/4 trimer) (protein, UniProt Q6BDR8 1-300)
chain: MSSIDKRDLRKRYRNLINKVQESRLELVDEENNNLYETITTANDLFSSVDAPTEATLDALLLTKTVDLASIKARQLHIGRPKFNIELFTKNIKQFLNYPTSHSNVTRIQEIDTAWSRLGKLASNCEKQPASLNLMVGPLSFRKKERNIQRRERLQKAPNVLTQPTMLNERNITTQENNTTKNVLHISRLLQAHQPVNFLKFITNPQSYPQTVENLFYVSFLFKEGKAALVENESGILMLETRIPPTDDQVVAGEIRNIQLVLDMTMDLYENIIKEYNIKESIIPTRAPVETSTNSNTWYG
binding [6]: binds
